Assay results: patent US20150045313A1, “Ectoparasiticidal Methods and Formulations” (Eli Lilly and Company, priority 2009, published 2015)
Some results were stated once for a whole list of compounds, not compound by compound.

Test system: Boophilus annulatus
Assay: Whole-body spray treatment of Boophilus annulatus infestations on cattle
Assay type: in vivo
Description: C) Efficacy Testing and comparison of topically applied spinetoram with spinosad for the treatment of Boophilus annulatus infestations on cattle. Technical spinetoram and technical spinosad both formulated as 25 g/L suspension concentrate formulations similar to commercial Elector. Stability assays (HPLC and LPT bioassays) were conducted to confirm potency over extended periods of time (5 weeks) at cool and shelf-temperatures. Cattle were pre-infested 21 d prior to treatment with larval-stage B. annulatus ticks resulting the presence of very high numbers of all three life-stages of this tick at the time of treatment. Test materials were diluted to 0.025% (250 ppm) and applied to cattle as whole-body topical sprays in a volume of 10 L per animal. There were a total of six animals per treatment group (n=6). Animals were housed in covered stalls under ambient conditions of temperature and humidity. Engorged, detached adult female ticks were retrieved from animals in each stall on a daily basis. Egg masses were weighed and eggs were set for hatching to assess viability. Efficacy was measured in terms of total numbers of female ticks per animal and index of fecundity (IF).
Means were tested by General Linear Model (GLM), 1-way ANOVA. Differences (P<0.05) among means were separated using Tukey's all pairwise comparison. […]

## Spinetoram
Through 2 weeks
  protection from larval re-infestation through 2 weeks: > 96%
Through 4 weeks
  protection from larval re-infestation through 4 weeks: > 80%
